PubChem BioAssay AID1259254 | NCATS | 2017
In all, the deposit lists about 59,000 reagents; below is a random part of them. About 1,550 of them (2.6%) count as active. 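G2 share is only a proxy for re-replication; each gene was hit by three separate siRNAs, and active genes were retested.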 Reagents against one gene are numbered here. Further read-outs or replicates are left out here. The record does not give: the amount of reagent.

- Aim: 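Gene knock-downs that lead to re-replication, shown by excess G2 DNA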 (primary screen)
- System: human HCT116 colorectal cancer cells
- Knock-down reagent: single siRNA against human genes
- Timing: 3 days
- Read-out: 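Imaged Hoechst DNA stain sorts each cell into a cycle phase by DNA amount; per plate, G2 fraction set to 0% for non-targeting and 100% for GMNN siRNA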
- Direction: G2 robust z-score and G2 cells, % of GMNN control: higher = more G2 cells, more excess DNA replication
- Call rule: 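Active siRNAs have a G2 robust z of 5 or more median absolute deviations over the median, which in these data means about 38% or higher of GMNN control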

NUDT10 (nudix hydrolase 10) #1 | G2 robust z-score: 1.45; G2 cells, % of GMNN control: 13.2; outcome: inactive
NUDT10 (nudix hydrolase 10) #2 | G2 robust z-score: -0.543; G2 cells, % of GMNN control: -0.851; outcome: inactive
NUDT10 (nudix hydrolase 10) #3 | G2 robust z-score: 0.57; G2 cells, % of GMNN control: 6.98; outcome: inactive
MYL7 (myosin light chain 7) #1 | G2 robust z-score: -0.203; G2 cells, % of GMNN control: 1.54; outcome: inactive
MYL7 (myosin light chain 7) #2 | G2 robust z-score: 2.39; G2 cells, % of GMNN control: 19.8; outcome: inactive
MYL7 (myosin light chain 7) #3 | G2 robust z-score: 4.09; G2 cells, % of GMNN control: 31.8; outcome: inactive
PLA1A (phospholipase A1 member A) #1 | G2 robust z-score: -0.645; G2 cells, % of GMNN control: -1.57; outcome: inactive
PLA1A (phospholipase A1 member A) #2 | G2 robust z-score: -0.0347; G2 cells, % of GMNN control: 2.72; outcome: inactive
PLA1A (phospholipase A1 member A) #3 | G2 robust z-score: -0.656; G2 cells, % of GMNN control: -1.65; outcome: inactive
MYH3 (myosin heavy chain 3) #1 | G2 robust z-score: 1.26; G2 cells, % of GMNN control: 11.8; outcome: inactive
MYH3 (myosin heavy chain 3) #2 | G2 robust z-score: -0.483; G2 cells, % of GMNN control: -0.433; outcome: inactive
MYH3 (myosin heavy chain 3) #3 | G2 robust z-score: -0.333; G2 cells, % of GMNN control: 0.626; outcome: inactive
RFC4 (replication factor C subunit 4) #1 | G2 robust z-score: -0.0278; G2 cells, % of GMNN control: 2.77; outcome: inactive
RFC4 (replication factor C subunit 4) #2 | G2 robust z-score: 5.61; G2 cells, % of GMNN control: 42.5; outcome: active
RFC4 (replication factor C subunit 4) #3 | G2 robust z-score: -0.916; G2 cells, % of GMNN control: -3.48; outcome: inactive

The list goes on; the last 2 above are carried over.
RFC4 (replication factor C subunit 4) #2 | G2 robust z-score: 5.61; G2 cells, % of GMNN control: 42.5; outcome: active
RFC4 (replication factor C subunit 4) #3 | G2 robust z-score: -0.916; G2 cells, % of GMNN control: -3.48; outcome: inactive
NINL (ninein like) #1 | G2 robust z-score: 3.32; G2 cells, % of GMNN control: 26.3; outcome: inactive
NINL (ninein like) #2 | G2 robust z-score: -1.7; G2 cells, % of GMNN control: -8.98; outcome: inactive
NINL (ninein like) #3 | G2 robust z-score: 0.814; G2 cells, % of GMNN control: 8.7; outcome: inactive
OR13J1 (olfactory receptor family 13 subfamily J member 1) #1 | G2 robust z-score: -0.804; G2 cells, % of GMNN control: -2.69; outcome: inactive
OR13J1 (olfactory receptor family 13 subfamily J member 1) #2 | G2 robust z-score: -0.103; G2 cells, % of GMNN control: 2.24; outcome: inactive
OR13J1 (olfactory receptor family 13 subfamily J member 1) #3 | G2 robust z-score: -0.262; G2 cells, % of GMNN control: 1.12; outcome: inactive
CLNK (cytokine dependent hematopoietic cell linker) #1 | G2 robust z-score: -0.345; G2 cells, % of GMNN control: 0.542; outcome: inactive
CLNK (cytokine dependent hematopoietic cell linker) #2 | G2 robust z-score: -0.251; G2 cells, % of GMNN control: 1.2; outcome: inactive
CLNK (cytokine dependent hematopoietic cell linker) #3 | G2 robust z-score: -0.265; G2 cells, % of GMNN control: 1.11; outcome: inactive
KCNJ2-AS1 (KCNJ2 antisense RNA 1) #1 | G2 robust z-score: 0.255; G2 cells, % of GMNN control: 4.76; outcome: inactive
KCNJ2-AS1 (KCNJ2 antisense RNA 1) #2 | G2 robust z-score: 6.01; G2 cells, % of GMNN control: 45.2; outcome: active
KCNJ2-AS1 (KCNJ2 antisense RNA 1) #3 | G2 robust z-score: -0.0578; G2 cells, % of GMNN control: 2.56; outcome: inactive
PCDHGC4 (protocadherin gamma subfamily C, 4) #1 | G2 robust z-score: -0.756; G2 cells, % of GMNN control: -2.35; outcome: inactive
PCDHGC4 (protocadherin gamma subfamily C, 4) #2 | G2 robust z-score: -0.19; G2 cells, % of GMNN control: 1.63; outcome: inactive
PCDHGC4 (protocadherin gamma subfamily C, 4) #3 | G2 robust z-score: -0.343; G2 cells, % of GMNN control: 0.551; outcome: inactive
